Measurements as given in patent publication US20110165623A1.
No constants are given. Whether binding was seen depends on the method and setting. For some assays here: Binding seen in cells or lysates may run through a third protein. Some results given as binding are weak or reduced against the parent protein; the word gives no strength.

How the values were obtained:
[1] = target: 8-histidine tagged latency-associated peptide (LAP) of porcine TGFβ1 with Cys 33 replaced by serine (porcine) (UniProt P07200); experiment: co-purification on a Ni-NTA column through the 8-histidine tag on LAP, SDS-PAGE stained with Coomassie blue
[2] = target: purified recombinant mature TGFβ1 (expressed in CHO cells from the modified porcine TGFβ1 cDNA) (porcine) (UniProt P07200); experiment: mature TGFβ1 purified together with His-tagged LAP on Ni-NTA, released by acid

Row | Substance | binding [1] | binding [2]
1 | purified recombinant mature TGFβ1 (expressed in CHO cells from the modified porcine TGFβ1 cDNA) (from UniProt P07200 279-390) (ligand) | binds | 
2 | 8-histidine tagged latency-associated peptide (LAP) of porcine TGFβ1 with Cys 33 replaced by serine (from UniProt P07200 34-278) |  | binds
